Assay results from patent publication US4362870A, “Selective opioid receptor alkylating agents” (priority 1981, dated 1982).
pIC50: −log10 of the molar value. Read-outs that look alike come from different tables or passages of the source.

Test system: electrically stimulated guinea pig ileal longitudinal muscle
Type: cell-based

For `CN1CC[C@]23c4c5ccc(O)c4O[C@H]2[C@@H](O)C=C[C@H]3[C@H]1C5` [Morphine], the “IC50 Ratio FNA/Control” value (agonist IC50 after FNA (2 × 10^-8, 30 min, 20 washes) / control) was 5.8, the pIC50 (read-out: IC50 After FNA) was 6.80 and the pIC50 (read-out: IC50 Control) was 7.56.
